Measured data: PubChem BioAssay AID1259308 (NCATS, 2017)
Screen: 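Knock-downs that increase output of a recombinant reporter protein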 (primary screen). System: human HEK293 embryonic kidney cells stably expressing firefly luciferase (HEK-CMV-Luc2-Hygro). Reagent: single siRNA against human genes, 0.8 pmol siRNA per well. Duration: 72 h. Detection: 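Luciferase light (ONE-Glo) measured on one replicate plate set and viability (CellTiter-Glo) on the other, scaled to a negative control siRNA, with robust z-scores and luciferase per cell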. Reading the numbers: total luciferase, z-score and total luciferase, % of control: higher = more reporter protein produced; luciferase per cell, z-score: higher = more reporter output per viable cell; viable cells, % of control: higher = more viable cells. Active means: 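Active when the median/MAD z-score for overall luciferase is greater than 3; a gene was taken forward for validation with new siRNAs if at least two of its three siRNAs passed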. Calls: active = raised luciferase; inactive = no rise.
This is an unselected part of about 59,000 reagents. About 1,510 of them (2.6%) count as active. 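Calls use total luciferase alone and ignore viability, so some active siRNAs may act by altering cell number.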 No sequences are given here.

target gene	PubChem SID	total luciferase, z-score	total luciferase, % of control	luciferase per cell, z-score	viable cells, % of control	activity call
GPD1	SID160730993	1.14	105	0.473	103	inactive
GPD1	SID160772780	-0.561	70.7	-0.819	98	inactive
GPD1	SID160772800	0.111	84.1	-0.282	101	inactive
ADAM19	SID160720688	-2.26	36.9	-1.45	60.3	inactive
ADAM19	SID160720689	0.0466	82.8	-0.258	99	inactive
ADAM19	SID160720690	0.312	88.1	-0.32	107	inactive
HOXA4	SID160775165	3.12	144	1.68	103	active
HOXA4	SID160775166	0.454	90.9	0.332	93.1	inactive
HOXA4	SID160775167	0.481	91.4	1.25	73.5	inactive
TMEM214	SID160742358	-0.643	69.1	-0.525	88.7	inactive
TMEM214	SID160742359	2.75	137	1.85	93.8	inactive
TMEM214	SID160742360	0.473	91.3	0.134	98.5	inactive
KDM6A	SID160718692	0.648	94.8	1.3	75.1	inactive
KDM6A	SID160718693	-0.4	73.9	-0.913	105	inactive
KDM6A	SID160718694	-0.42	73.5	-1.14	111	inactive
ZSCAN31	SID160747640	5.51	192	3.42	87	active
ZSCAN31	SID160747641	1.15	105	0.746	96.1	inactive
ZSCAN31	SID160747642	-0.643	69.1	0.279	71.7	inactive
PEX6	SID160714111	-1.87	44.7	-0.839	62.3	inactive
PEX6	SID160714113	-1.5	52.1	-2.33	107	inactive
PEX6	SID160714114	1.51	112	0.761	102	inactive
TAF7L	SID160741707	-2.11	39.9	-3.32	107	inactive
TAF7L	SID160741708	-0.439	73.2	-0.19	85.9	inactive
TAF7L	SID160741709	-0.586	70.2	-0.915	99.9	inactive
MLIP	SID160753725	-0.198	78	-0.743	106	inactive
MLIP	SID160753726	-0.0123	81.6	-0.00862	91.4	inactive
MLIP	SID160753727	-0.809	65.8	-1.04	96.7	inactive
SMIM10L2A	SID160766828	0.543	92.7	-0.32	113	inactive
SMIM10L2A	SID160766829	2.65	135	1.69	96.3	inactive
SMIM10L2A	SID160766830	4.16	165	1.68	118	active
KRT73	SID160763941	1.41	110	1.57	81.3	inactive
KRT73	SID160763942	-0.684	68.3	-0.579	88.9	inactive
KRT73	SID160763943	0.122	84.3	-0.513	108	inactive
GLTPD2	SID160725189	-0.0951	80	0.115	86.7	inactive
GLTPD2	SID160765811	0.304	87.9	0.108	95.5	inactive
GLTPD2	SID160765812	-0.392	74.1	-0.394	91.8	inactive
PCDHB7	SID160744830	-1.46	52.9	-1.71	92.8	inactive
PCDHB7	SID160744831	-0.416	73.6	-0.749	100	inactive
PCDHB7	SID160744832	-0.0865	80.2	-0.311	97.2	inactive
MYBBP1A	SID160728615	-0.225	77.4	-0.761	106	inactive
MYBBP1A	SID160728616	-0.729	67.4	-0.797	92.9	inactive
MYBBP1A	SID160728617	0.414	90.1	-0.0303	102	inactive
RNF44	SID160731797	2.84	138	1.37	108	inactive
RNF44	SID160731816	0.869	99.2	1.58	73.2	inactive
RNF44	SID160732723	-0.219	77.5	-0.512	99.1	inactive
PCIF1	SID160747313	-0.875	64.5	-0.584	84	inactive
PCIF1	SID160747314	1.9	120	1.59	88	inactive
PCIF1	SID160747315	-0.244	77	-0.679	103	inactive
FGF21	SID160732866	-2.25	37.1	-2.83	87.3	inactive
FGF21	SID160737930	-0.871	64.6	-1.04	94.9	inactive
FGF21	SID160737932	0.109	84	-0.204	99.1	inactive
SIRPB2	SID160763433	-0.519	71.6	-0.122	82.6	inactive
SIRPB2	SID160763434	1.79	117	0.953	102	inactive
SIRPB2	SID160763435	0.394	89.7	0.262	93.6	inactive
GNB1L	SID160724437	-0.0653	80.6	-0.43	101	inactive
GNB1L	SID160741949	0.555	92.9	0.644	87.7	inactive
GNB1L	SID160741950	0.382	89.5	0.502	87.6	inactive

No new results follow: entries from further up.
target gene	PubChem SID	total luciferase, z-score	total luciferase, % of control	luciferase per cell, z-score	viable cells, % of control	activity call
TAF7L	SID160741709	-0.586	70.2	-0.915	99.9	inactive
MLIP	SID160753725	-0.198	78	-0.743	106	inactive
MLIP	SID160753726	-0.0123	81.6	-0.00862	91.4	inactive
